Test results published in patent US20140234872A1.
These are yes or no findings as the source states them, for the method shown. In cells and extracts the contact can be indirect. Some binding calls cover weakened binding; strength is not graded here.

The chains behind the UniProt entries cited, without tags or fusion partners. Where a name states a change or a piece, a line headed by the entry shows the natural chain unless it says otherwise. A line that says so, or that is headed by a name, gives the form on record, which may keep a tag or linker.
UniProt P29350: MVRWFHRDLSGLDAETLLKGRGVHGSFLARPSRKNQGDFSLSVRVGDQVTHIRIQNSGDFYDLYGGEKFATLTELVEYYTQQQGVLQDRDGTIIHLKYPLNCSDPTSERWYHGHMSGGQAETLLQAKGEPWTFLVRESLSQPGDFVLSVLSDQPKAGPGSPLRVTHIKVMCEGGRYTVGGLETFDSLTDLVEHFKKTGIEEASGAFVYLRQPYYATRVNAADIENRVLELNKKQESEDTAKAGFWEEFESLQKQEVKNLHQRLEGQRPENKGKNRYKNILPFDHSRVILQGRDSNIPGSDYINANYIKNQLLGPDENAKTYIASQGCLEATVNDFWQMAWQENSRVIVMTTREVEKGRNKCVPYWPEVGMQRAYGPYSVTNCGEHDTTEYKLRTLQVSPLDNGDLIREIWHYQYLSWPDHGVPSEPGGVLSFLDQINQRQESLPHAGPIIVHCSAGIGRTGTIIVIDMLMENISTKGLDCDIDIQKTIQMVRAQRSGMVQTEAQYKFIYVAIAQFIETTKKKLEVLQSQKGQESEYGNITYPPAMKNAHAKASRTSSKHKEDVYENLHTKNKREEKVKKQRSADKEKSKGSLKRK
endogenous GIV of HEK cells (Q3V6T2, form named): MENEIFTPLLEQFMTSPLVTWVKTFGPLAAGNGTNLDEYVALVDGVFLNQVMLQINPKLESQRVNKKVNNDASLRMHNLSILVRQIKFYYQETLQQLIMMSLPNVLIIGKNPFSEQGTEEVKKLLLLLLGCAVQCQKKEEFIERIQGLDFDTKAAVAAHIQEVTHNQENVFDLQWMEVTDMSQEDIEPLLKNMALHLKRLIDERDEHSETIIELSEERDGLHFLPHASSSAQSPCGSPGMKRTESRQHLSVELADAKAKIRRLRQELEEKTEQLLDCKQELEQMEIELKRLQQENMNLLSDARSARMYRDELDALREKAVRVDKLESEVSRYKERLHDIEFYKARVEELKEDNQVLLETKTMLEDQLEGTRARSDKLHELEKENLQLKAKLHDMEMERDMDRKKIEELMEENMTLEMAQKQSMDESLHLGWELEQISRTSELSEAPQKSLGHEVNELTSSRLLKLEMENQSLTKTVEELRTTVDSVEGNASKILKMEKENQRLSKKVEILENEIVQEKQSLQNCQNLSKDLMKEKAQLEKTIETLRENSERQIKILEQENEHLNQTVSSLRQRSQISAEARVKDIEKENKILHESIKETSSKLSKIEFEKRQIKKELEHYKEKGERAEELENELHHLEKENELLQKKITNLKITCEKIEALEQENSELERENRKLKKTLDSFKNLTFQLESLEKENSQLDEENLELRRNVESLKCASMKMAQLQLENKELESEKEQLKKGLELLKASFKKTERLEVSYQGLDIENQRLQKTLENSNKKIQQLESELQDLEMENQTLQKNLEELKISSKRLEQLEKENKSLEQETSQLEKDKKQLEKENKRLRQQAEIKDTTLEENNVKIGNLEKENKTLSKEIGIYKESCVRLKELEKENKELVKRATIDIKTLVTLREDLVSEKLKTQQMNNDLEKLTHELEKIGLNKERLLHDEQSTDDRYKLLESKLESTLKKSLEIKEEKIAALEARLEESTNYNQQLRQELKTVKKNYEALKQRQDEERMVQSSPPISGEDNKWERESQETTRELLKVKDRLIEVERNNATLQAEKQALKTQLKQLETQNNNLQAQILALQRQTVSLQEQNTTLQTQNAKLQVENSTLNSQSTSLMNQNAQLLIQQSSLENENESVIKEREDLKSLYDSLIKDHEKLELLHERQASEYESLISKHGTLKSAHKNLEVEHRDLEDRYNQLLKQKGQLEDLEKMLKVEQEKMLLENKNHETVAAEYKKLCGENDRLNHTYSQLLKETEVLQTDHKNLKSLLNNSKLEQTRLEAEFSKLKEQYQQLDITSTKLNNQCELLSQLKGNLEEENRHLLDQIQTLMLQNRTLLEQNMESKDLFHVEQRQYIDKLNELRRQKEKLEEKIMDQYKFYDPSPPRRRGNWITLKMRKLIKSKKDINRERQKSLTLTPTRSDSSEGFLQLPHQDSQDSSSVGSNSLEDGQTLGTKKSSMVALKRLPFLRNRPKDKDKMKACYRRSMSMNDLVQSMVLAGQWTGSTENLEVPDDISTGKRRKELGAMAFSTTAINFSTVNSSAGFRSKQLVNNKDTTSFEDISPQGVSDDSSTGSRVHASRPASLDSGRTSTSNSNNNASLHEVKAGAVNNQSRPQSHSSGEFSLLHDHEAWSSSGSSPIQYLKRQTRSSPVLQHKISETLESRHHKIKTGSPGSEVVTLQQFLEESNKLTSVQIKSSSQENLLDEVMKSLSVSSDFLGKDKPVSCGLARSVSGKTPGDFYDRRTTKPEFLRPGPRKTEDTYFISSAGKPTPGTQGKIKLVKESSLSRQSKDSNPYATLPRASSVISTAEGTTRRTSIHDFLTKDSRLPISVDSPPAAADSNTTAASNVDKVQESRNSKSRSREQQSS

Experiments:
[1] = target: endogenous SHP-1 of HEK cells (UniProt P29350); test: anti-SHP-1 co-immunoprecipitation from HEK cells (FIG. 26)
[2] = target: endogenous SHP-1 of HEK cells (UniProt P29350); test: anti-SHP-1 co-immunoprecipitation from HEK lysates (FIG. 26)

“endogenous GIV of HEK cells (from UniProt Q3V6T2 1-1870)” was tested, and the binding [1] was “binds” and the binding [2] was “binds”.
